Test results taken from patent US12268749B2 (Oxford University Innovation Limited, priority 2018, dated 2025).

Assay: general procedure: Fmoc solid-phase peptide synthesis; Fmoc-β-Ala-OH preloaded Wang resin (0.19 or 0.46 mmol g−1); PyBOP/NMM (Intavis); PyBOP/DIPEA (CEM); conjugation PyBOP/HOAt/DIPEA or HBTU
Conditions: conjugation step

Substance | conjugation yield | conjugation yield (based on PMO)
Ac-RBRBRFQILYRBRRBRR-B | 24% | 24%
Ac-RBRRBRRYQFLIRBRBR-B | 24% | 
